PubChem BioAssay AID1259254 | NCATS – 2017
Test: 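Finding genes that stop cells copying their DNA twice in one cycle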 (primary screen). Cells: human HCT116 colorectal cancer cells. Reagent: single siRNA against human genes. Duration: 3 days. Measurement: 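Nuclei stained with Hoechst and imaged; cell-cycle phase assigned by DNA content; G2 share scaled per plate, non-targeting siRNA 0%, GMNN siRNA 100%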. Reading the numbers: G2 robust z-score and G2 cells, % of GMNN control: higher = more G2 cells, more excess DNA replication. Rule for the call: 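An siRNA counts as active if its G2 robust z-score lies at least 5 MADs above the screen median; here such calls match roughly 38% of GMNN control or more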.
In all, the deposit lists about 59,000 reagents; this is a random part of them. About 1,550 of them (2.6%) were called active. 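G2 share is only a proxy for re-replication; each gene was hit by three separate siRNAs, and active genes were retested.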 A number with no mark means an inactive call. Reagents against one gene are numbered here. Not all columns of the deposit are shown. Not stated in the record: the amount of reagent.

COP1 (GeneID 64326) #1
- G2 robust z-score: 5.07 (active)
- G2 cells, % of GMNN control: 38.6

COP1 (GeneID 64326) #2
- G2 robust z-score: 3.18
- G2 cells, % of GMNN control: 25.4

COP1 (GeneID 64326) #3
- G2 robust z-score: 0.978
- G2 cells, % of GMNN control: 9.85

C16orf86 (GeneID 388284) #1
- G2 robust z-score: -0.111
- G2 cells, % of GMNN control: 2.19

C16orf86 (GeneID 388284) #2
- G2 robust z-score: 0.232
- G2 cells, % of GMNN control: 4.6

C16orf86 (GeneID 388284) #3
- G2 robust z-score: -0.00506
- G2 cells, % of GMNN control: 2.93

LINC00518 (GeneID 221718) #1
- G2 robust z-score: 0.554
- G2 cells, % of GMNN control: 6.87

LINC00518 (GeneID 221718) #2
- G2 robust z-score: -0.898
- G2 cells, % of GMNN control: -3.35

LINC00518 (GeneID 221718) #3
- G2 robust z-score: -0.211
- G2 cells, % of GMNN control: 1.48

GNL2 (GeneID 29889) #1
- G2 robust z-score: -0.14
- G2 cells, % of GMNN control: 1.98

GNL2 (GeneID 29889) #2
- G2 robust z-score: -0.000619
- G2 cells, % of GMNN control: 2.96

GNL2 (GeneID 29889) #3
- G2 robust z-score: 1.28
- G2 cells, % of GMNN control: 12

Part of the list above, reformatted.
gene knocked down | reagent | G2 robust z-score | G2 cells, % of GMNN control
LINC00518 (GeneID 221718) | 2 | -0.898 | -3.35
LINC00518 (GeneID 221718) | 3 | -0.211 | 1.48
